Source: the supplement of paper PMC10849652
Some of the results follow.

By UniProt entry, the sequences of proteins in these tests, tags left out. Where a name states a change or a piece, a line headed by the entry shows the natural chain unless it says otherwise.
UniProt Q5T0N5: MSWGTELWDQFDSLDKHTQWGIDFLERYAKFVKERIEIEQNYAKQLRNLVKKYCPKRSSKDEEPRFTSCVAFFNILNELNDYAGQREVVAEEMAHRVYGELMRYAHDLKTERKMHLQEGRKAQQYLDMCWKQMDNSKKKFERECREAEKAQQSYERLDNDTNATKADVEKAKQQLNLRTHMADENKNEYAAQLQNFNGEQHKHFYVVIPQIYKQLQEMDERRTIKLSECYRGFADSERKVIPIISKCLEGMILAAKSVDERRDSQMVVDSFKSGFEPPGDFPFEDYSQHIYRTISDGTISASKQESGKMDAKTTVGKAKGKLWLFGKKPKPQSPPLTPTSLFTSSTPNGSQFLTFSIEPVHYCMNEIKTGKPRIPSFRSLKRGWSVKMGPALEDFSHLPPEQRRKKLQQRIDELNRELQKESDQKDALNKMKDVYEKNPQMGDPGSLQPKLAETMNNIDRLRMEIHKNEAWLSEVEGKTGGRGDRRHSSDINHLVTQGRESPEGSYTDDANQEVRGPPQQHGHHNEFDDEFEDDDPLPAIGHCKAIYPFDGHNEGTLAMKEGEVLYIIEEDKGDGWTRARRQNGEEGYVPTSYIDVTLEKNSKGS
UniProt Q96ME1: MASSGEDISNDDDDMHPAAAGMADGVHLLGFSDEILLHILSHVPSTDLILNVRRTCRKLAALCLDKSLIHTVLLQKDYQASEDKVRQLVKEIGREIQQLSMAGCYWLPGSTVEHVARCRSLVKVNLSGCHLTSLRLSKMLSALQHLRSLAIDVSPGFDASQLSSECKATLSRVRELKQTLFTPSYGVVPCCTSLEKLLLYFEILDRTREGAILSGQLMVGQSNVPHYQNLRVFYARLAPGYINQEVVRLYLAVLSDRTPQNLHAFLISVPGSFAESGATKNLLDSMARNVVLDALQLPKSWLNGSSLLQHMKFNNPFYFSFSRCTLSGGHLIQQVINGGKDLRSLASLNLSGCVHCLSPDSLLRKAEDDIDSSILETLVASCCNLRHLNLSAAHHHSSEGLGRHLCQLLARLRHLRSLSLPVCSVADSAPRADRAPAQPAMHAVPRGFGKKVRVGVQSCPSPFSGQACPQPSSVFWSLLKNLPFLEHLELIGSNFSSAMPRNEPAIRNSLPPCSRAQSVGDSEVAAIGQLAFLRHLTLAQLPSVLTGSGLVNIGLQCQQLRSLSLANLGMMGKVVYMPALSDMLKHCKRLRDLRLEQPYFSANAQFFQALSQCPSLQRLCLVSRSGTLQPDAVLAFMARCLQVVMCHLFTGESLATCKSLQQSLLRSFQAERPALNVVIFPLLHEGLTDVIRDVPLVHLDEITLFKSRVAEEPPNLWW
UniProt Q8IW50: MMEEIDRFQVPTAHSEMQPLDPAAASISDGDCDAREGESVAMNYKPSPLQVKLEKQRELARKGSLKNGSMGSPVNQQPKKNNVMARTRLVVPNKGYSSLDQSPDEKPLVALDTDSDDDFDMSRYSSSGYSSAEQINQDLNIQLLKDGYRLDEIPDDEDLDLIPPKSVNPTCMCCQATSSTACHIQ
UniProt O14526: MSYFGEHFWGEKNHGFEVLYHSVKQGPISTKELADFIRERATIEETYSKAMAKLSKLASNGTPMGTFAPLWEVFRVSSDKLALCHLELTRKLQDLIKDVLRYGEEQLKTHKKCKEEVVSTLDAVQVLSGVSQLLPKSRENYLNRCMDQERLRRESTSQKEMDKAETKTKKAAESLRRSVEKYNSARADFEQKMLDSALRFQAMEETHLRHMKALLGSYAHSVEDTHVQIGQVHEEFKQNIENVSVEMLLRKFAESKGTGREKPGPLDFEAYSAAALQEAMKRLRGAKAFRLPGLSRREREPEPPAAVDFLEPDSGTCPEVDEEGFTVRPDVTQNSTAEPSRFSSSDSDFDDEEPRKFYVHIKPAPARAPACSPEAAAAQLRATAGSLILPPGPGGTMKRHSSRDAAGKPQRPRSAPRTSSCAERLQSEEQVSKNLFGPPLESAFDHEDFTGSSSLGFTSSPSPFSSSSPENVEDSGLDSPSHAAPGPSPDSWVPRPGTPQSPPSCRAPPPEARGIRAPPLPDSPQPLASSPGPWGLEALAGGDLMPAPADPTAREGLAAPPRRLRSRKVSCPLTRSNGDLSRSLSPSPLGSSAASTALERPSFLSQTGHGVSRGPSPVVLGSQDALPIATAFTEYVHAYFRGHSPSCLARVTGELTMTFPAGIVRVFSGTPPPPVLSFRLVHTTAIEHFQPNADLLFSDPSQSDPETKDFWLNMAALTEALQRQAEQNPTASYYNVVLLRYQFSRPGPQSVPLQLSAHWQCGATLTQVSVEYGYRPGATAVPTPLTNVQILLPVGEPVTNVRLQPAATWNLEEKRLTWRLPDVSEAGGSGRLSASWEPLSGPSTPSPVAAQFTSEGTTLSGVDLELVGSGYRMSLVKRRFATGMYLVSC
UniProt Q9H479: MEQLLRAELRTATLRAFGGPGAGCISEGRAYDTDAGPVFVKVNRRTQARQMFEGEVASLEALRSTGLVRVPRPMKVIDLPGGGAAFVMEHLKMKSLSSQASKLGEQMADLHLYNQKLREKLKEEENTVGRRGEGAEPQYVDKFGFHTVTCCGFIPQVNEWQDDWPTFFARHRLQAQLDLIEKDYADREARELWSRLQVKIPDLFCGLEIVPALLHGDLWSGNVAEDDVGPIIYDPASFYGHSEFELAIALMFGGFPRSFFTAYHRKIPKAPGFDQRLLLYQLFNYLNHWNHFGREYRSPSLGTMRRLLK
UniProt Q86WN1: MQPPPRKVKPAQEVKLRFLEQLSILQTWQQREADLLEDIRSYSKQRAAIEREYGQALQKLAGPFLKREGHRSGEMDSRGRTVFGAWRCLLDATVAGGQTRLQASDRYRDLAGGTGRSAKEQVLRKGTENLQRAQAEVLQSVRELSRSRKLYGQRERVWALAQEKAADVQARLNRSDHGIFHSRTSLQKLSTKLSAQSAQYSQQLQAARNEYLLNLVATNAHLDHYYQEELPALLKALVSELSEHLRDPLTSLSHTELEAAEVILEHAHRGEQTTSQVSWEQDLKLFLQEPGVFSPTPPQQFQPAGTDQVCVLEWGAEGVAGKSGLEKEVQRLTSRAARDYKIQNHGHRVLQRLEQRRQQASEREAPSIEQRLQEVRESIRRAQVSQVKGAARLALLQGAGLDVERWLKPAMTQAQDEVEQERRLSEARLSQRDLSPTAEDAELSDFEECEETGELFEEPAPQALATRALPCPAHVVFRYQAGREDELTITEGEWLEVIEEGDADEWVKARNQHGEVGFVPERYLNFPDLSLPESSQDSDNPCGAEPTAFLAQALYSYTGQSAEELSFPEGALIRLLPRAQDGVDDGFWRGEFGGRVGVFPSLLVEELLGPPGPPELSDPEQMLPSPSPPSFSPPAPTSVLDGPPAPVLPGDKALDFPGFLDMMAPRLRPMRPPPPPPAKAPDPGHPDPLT
UniProt P02751, whole entry, looked up: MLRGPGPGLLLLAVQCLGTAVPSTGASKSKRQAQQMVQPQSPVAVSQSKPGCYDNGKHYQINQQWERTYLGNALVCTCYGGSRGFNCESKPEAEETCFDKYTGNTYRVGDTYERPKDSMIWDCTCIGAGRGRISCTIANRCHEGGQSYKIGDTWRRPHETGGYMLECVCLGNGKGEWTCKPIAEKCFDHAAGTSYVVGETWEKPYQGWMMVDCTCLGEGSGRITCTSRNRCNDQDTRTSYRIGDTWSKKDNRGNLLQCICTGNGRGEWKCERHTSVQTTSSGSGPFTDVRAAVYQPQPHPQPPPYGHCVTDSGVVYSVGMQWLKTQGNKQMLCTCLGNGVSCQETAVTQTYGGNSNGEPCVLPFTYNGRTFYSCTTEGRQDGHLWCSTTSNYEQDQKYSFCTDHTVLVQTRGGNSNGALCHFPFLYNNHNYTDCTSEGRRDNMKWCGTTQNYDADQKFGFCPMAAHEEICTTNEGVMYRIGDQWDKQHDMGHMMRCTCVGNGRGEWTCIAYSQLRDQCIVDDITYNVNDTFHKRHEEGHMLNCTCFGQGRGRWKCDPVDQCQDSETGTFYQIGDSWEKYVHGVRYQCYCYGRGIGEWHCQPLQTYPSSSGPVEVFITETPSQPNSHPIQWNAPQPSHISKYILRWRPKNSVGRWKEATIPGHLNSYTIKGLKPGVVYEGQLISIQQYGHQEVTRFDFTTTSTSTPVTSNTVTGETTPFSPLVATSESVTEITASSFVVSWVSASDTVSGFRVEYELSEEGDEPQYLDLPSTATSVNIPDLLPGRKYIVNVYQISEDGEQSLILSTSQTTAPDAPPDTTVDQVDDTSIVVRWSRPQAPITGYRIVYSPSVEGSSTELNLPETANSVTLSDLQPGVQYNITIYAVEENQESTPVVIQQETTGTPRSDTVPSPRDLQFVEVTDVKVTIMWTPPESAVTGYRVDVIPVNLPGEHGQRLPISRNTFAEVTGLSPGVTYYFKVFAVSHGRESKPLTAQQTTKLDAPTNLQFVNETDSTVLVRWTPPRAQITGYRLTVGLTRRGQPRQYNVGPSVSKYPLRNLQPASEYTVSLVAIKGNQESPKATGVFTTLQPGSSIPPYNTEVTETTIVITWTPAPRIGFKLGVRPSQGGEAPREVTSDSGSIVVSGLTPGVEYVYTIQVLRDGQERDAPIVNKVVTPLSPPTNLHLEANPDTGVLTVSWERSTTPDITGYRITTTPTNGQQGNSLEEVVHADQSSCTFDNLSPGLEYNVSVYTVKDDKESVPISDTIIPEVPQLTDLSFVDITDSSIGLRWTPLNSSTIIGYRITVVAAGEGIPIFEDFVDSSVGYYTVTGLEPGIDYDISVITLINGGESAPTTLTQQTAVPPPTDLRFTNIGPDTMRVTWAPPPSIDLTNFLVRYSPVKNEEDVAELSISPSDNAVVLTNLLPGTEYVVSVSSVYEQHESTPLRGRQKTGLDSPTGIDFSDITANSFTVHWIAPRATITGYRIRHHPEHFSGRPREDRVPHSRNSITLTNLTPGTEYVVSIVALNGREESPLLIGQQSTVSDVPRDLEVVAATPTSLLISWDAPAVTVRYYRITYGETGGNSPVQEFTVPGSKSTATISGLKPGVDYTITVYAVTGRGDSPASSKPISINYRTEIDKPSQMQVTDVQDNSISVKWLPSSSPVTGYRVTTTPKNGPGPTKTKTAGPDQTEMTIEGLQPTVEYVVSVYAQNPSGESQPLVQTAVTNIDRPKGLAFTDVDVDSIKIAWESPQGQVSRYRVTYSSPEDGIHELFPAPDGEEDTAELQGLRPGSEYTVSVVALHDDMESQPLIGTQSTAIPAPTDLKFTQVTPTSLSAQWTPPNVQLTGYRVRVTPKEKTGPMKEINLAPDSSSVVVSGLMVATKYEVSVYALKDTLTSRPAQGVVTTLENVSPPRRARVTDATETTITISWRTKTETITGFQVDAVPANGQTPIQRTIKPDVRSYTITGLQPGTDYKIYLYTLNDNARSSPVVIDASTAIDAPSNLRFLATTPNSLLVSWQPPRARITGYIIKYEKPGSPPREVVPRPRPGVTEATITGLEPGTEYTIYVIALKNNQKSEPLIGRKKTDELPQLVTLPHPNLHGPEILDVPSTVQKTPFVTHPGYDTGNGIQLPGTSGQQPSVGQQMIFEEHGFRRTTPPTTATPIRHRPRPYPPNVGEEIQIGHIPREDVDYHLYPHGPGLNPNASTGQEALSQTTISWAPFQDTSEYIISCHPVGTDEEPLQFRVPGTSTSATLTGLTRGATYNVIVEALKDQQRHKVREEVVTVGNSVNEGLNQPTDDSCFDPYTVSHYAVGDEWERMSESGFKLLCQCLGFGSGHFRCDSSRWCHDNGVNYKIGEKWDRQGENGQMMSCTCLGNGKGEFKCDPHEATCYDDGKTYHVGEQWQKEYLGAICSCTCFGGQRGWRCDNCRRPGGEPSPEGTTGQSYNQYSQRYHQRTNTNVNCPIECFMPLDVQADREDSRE
UniProt Q8N8J7: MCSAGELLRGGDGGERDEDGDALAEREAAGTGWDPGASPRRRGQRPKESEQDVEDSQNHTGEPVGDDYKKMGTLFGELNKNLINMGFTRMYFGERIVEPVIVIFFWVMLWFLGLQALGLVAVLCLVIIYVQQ
UniProt Q9NVK5: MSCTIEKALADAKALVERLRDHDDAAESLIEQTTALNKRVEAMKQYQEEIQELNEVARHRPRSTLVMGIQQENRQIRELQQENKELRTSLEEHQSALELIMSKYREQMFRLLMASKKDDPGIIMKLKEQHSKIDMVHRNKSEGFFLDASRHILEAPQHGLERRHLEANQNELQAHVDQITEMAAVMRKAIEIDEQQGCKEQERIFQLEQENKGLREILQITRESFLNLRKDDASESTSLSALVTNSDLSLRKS
UniProt Q9NXK8: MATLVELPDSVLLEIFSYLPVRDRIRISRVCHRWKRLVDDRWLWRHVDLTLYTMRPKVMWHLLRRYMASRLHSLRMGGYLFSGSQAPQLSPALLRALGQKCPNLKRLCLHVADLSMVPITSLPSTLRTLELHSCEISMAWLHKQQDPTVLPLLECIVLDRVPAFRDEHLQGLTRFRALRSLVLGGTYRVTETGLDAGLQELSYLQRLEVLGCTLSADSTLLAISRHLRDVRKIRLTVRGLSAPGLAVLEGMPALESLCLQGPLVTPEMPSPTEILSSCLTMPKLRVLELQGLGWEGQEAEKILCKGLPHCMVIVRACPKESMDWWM

Tests used:
Assay in all cases: log2 fold change, soluble protein after heating vs DMSO (PISA); higher = thermal stabilisation; K562 cells, 10 uM, 30 min; active = over 0.2 and 3.5 SD of the protein, either way, in both replicates (recomputed)
[1] = compound: C#Cc1cccc(Nc2ncnc3cc(OCCOC)c(OCCOC)cc23)c1 [erlotinib]
In short: (§1)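 Aliquots of K562 cells (2×10^6 cells/mL) treated with 10 μM compound for 30 min were heated for 3 min over 48°C-58°C. After pooling and extraction in PBS with 0.5% NP-40 at 4°C, soluble protein from a 21,000xg, 90 min spin was quantified by TMTpro 16plex LC-MS/MS with channel sums equalised. Thermal stability is expressed against control samples, from duplicates, as a log2 fold change.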

[2] = compound: C/C(=N\NC(=O)C1=CC(=CC=C1)S(=O)(=O)N2CCOCC2)/C3=C(C=CC(=C3)Cl)O
In short: as §1

[3] = compound: C1=CC(=CC=C1C2=NC3=C(N2)C=C(C=C3)C(=O)N)OC4=CC=C(C=C4)Cl
In short: as §1

[4] = compound: C1=CC2=C(C=CC(=C2)/C=C\3/C(=O)NC(=NCC4=CC=CS4)S3)N=C1
In short: as §1

[5] = compound: C1=CC2=NC=CN=C2C=C1/C=C/3\C(=O)NC(=O)S3
In short: as §1

[6] = compound: C1=CC=C(C=C1)C2=NC(=C(N2)C3=CC=NC=C3)C4=CC(=C(C=C4)Cl)O
In short: as §1

[7] = compound: C1=CC=C2C(=C1)C3=NNC4=CC=CC(=C43)C2=O
In short: as §1

[8] = compound: C1CCN(C1)C(=O)NC2=CC=CC(=C2)NC3=NC=C(C(=N3)NCCC4=CN=CN4)Br
In short: as §1

[9] = compound: C1CN(CCC1(CC2=CC=C(C=C2)Cl)N)C3=NC=NC4=C3C=CN4
In short: as §1

[10] = compound: C1=CC(=C(C=C1Cl)C2=NC3=NC=CN=C3C(=N2)NC4=CC=NC=C4)F
In short: as §1

Measured: log2 fold change

FNBP1L (UniProt Q5T0N5)
inactive: [1] -0.053 | [2] -0.2 | [3] -0.112 | [4] 0.022 | [5] -0.086 | [6] -0.033 | [7] 0.077 | [8] -0.255 | [9] -0.116

FBXL18 isoform 4 (UniProt Q96ME1)
inactive: [1] -0.035 | [2] 0.03 | [10] 0.053 | [3] 0.026 | [4] 0.014 | [5] 0.003 | [6] -0.01 | [7] 0.033 | [8] -0.069 | [9] 0.013

FAM219A (UniProt Q8IW50)
inactive: [1] 0.028 | [2] 0.002 | [10] -0.033 | [3] 0.057 | [4] 0.074 | [5] 0.018 | [7] -0.03 | [8] -0.017 | [9] -0.034

FCGR2A (UniProt P12318)
inactive: [1] 0.136 | [2] 0.114 | [10] -0.194 | [3] -0.017 | [4] 0.056 | [5] -0.076 | [6] 0.037 | [7] -0.117 | [8] -0.067 | [9] 0.011

FCHO1 (UniProt O14526)
inactive: [1] 0.065 | [2] 0.104 | [10] -0.032 | [3] -0.011 | [4] 0.07 | [6] -0.144 | [7] -0.061 | [8] -0.005 | [9] -0.029

FLII (UniProt Q13045)
inactive: [1] 0.012 | [2] 0.038 | [10] -0.006 | [3] 0.015 | [4] 0.009 | [5] 0.018 | [6] -0.021 | [7] -0.018 | [8] 0.037 | [9] -0.05

FAM83A (UniProt Q86UY5)
inactive: [1] 0.1 | [2] 0.18 | [10] -0.109 | [3] 0.01 | [4] 0.079 | [6] 0.06 | [7] -0.001 | [8] 0.027 | [9] -0.074

Random excerpt: 2 records from the list
FLII (UniProt Q13045)
inactive: [1] 0.012 | [2] 0.038 | [10] -0.006 | [3] 0.015 | [4] 0.009 | [5] 0.018 | [6] -0.021 | [7] -0.018 | [8] 0.037 | [9] -0.05

FNBP1L (UniProt Q5T0N5)
inactive: [1] -0.053 | [2] -0.2 | [3] -0.112 | [4] 0.022 | [5] -0.086 | [6] -0.033 | [7] 0.077 | [8] -0.255 | [9] -0.116

Next part

FN3K (UniProt Q9H479)
inactive: [1] 0.028 | [2] 0.003 | [10] 0.021 | [3] 0.005 | [4] 0.033 | [5] -0.007 | [6] -0.001 | [7] -0.043 | [8] -0.02 | [9] 0.045

FDXR isoform 7 (UniProt P22570)
inactive: [1] 0.092 | [2] 0.033 | [10] 0.109 | [3] -0.126 | [4] 0.076 | [5] -0.13 | [6] 0.064 | [7] 0 | [8] 0.025 | [9] 0.019

FCHSD1 (UniProt Q86WN1)
inactive: [1] -0.06 | [2] -0.035 | [10] -0.128 | [3] -0.161 | [4] 0.043 | [6] -0.043 | [7] 0.063

FN1 isoform 1 (UniProt P02751)
inactive: [1] -0.114 | [2] -0.108 | [10] -0.022 | [3] 0.097 | [4] 0.092 | [5] -0.014 | [6] 0.044 | [7] -0.112 | [8] 0.06 | [9] 0.069

FAM49B (UniProt Q9NUQ9)
inactive: [1] -0.033 | [2] 0.026 | [10] 0.021 | [3] 0.056 | [4] 0.011 | [5] 0.035 | [6] 0.008 | [7] 0.009 | [8] 0.012 | [9] 0.024

FAM241A (UniProt Q8N8J7)
inactive: [1] -0.012 | [2] -0.005 | [3] 0.044 | [4] -0.076 | [5] 0.043 | [6] -0.014 | [7] 0.012 | [8] 0.016 | [9] 0.045

FAU (UniProt P62861)
inactive: [1] -0.134 | [2] -0.166 | [10] -0.588 | [3] 0.026 | [4] -0.323 | [5] -0.035 | [6] -0.166 | [7] 0.08 | [8] 0.014 | [9] -0.158

FLT4 (UniProt P35916)
inactive: [1] 0.596 | [2] 0.018 | [10] -0.014 | [3] -0.004 | [4] 0.035 | [5] 0.038 | [6] -0.039 | [7] -0.018 | [8] -0.021 | [9] -0.051

FGFR1OP2 (UniProt Q9NVK5)
inactive: [1] -0.04 | [2] -0.008 | [10] -0.105 | [3] 0.103 | [4] 0.057 | [5] 0.066 | [7] -0.039 | [8] 0.033 | [9] 0.003

FBXL12 (UniProt Q9NXK8)
inactive: [1] 0.007 | [2] 0.177 | [10] 0.028 | [3] -0.03 | [4] 0.032 | [5] -0.068 | [6] 0.12 | [7] -0.071 | [8] -0.121 | [9] 0.06

FHL1 isoform 4 (UniProt Q13642)
inactive: [1] -0.045 | [2] -0.144 | [10] -0.215 | [3] 0.047 | [4] 0.253 | [5] 0.085 | [7] -0.079 | [8] -0.001 | [9] 0.059

FKBP1A (UniProt P62942)
inactive: [1] -0.275 | [2] 0.122 | [10] -0.003 | [3] 0.127 | [4] 0.238 | [5] -0.004 | [6] -0.009 | [7] 0.039 | [8] -0.03 | [9] -0.014

FEN1 (UniProt P39748)
inactive: [1] 0.126 | [2] 0.098 | [10] 0.091 | [3] 0.026 | [4] 0.172 | [5] 0.003 | [6] 0.118 | [7] 0.026 | [8] 0.007 | [9] -0.068

FCSK isoform 2 (UniProt Q8N0W3)
inactive: [1] 0.006 | [2] 0.041 | [10] 0.097 | [3] 0.091 | [4] -0.008 | [5] 0.004 | [6] -0.021 | [7] 0.017 | [8] -0.061 | [9] 0.024

FBRSL1 (UniProt Q9HCM7)
inactive: [1] 0.013 | [2] 0.082 | [10] -0.046 | [3] 0.08 | [4] -0.089 | [6] 0.003 | [7] 0.154 | [8] -0.201 | [9] 0.14

FDX1 (UniProt P10109)
inactive: [1] 0.178 | [2] -0.073 | [10] -0.009 | [3] -0.076 | [4] 0.005 | [5] 0.081 | [6] 0.035 | [7] -0.086 | [8] 0.029 | [9] 0.005

FIBP (UniProt O43427)
inactive: [1] 0.023 | [2] 0.088 | [10] 0.011 | [3] -0.002 | [4] 0.107 | [5] -0.023 | [6] -0.032 | [7] 0.011 | [8] -0.144 | [9] 0.125

FAM53C (UniProt Q9NYF3)
inactive: [6] -0.018 | [8] -0.084 | [9] -0.274

FANCL isoform 2 (UniProt Q9NW38)
inactive: [2] 0.077 | [4] 0.216 | [7] -0.089

FBRS (UniProt J3KNZ9)
inactive: [2] 0.026 | [10] -0.098 | [4] -0.101 | [7] 0.178

FMNL1 isoform 3 (UniProt O95466)
inactive: [2] -0.01 | [10] -0.185 | [4] 0.016 | [5] -0.186 | [7] -0.112

FGG (UniProt P02679)
inactive: [6] -0.05

FCF1 (UniProt Q9Y324)
inactive: [10] -0.392 | [6] -0.075 | [8] 0.034 | [9] -0.138

FAT1 (UniProt Q14517)
inactive: [1] -0.06 | [10] -0.062 | [3] 0.161 | [5] -0.08 | [6] 0.045 | [8] -0.123 | [9] 0.066

FBXO44 (UniProt Q9H4M3)
inactive: [5] 0.037 | [6] 0.128
